These are yes or no findings as the source states them, for the method shown. Sequences can lack the tags named with a protein.
Target: T1, GFP-CTCF (mouse CTCF, from pEGFP-mCTCF) (mouse) (UniProt Q61164)
T1 sequence: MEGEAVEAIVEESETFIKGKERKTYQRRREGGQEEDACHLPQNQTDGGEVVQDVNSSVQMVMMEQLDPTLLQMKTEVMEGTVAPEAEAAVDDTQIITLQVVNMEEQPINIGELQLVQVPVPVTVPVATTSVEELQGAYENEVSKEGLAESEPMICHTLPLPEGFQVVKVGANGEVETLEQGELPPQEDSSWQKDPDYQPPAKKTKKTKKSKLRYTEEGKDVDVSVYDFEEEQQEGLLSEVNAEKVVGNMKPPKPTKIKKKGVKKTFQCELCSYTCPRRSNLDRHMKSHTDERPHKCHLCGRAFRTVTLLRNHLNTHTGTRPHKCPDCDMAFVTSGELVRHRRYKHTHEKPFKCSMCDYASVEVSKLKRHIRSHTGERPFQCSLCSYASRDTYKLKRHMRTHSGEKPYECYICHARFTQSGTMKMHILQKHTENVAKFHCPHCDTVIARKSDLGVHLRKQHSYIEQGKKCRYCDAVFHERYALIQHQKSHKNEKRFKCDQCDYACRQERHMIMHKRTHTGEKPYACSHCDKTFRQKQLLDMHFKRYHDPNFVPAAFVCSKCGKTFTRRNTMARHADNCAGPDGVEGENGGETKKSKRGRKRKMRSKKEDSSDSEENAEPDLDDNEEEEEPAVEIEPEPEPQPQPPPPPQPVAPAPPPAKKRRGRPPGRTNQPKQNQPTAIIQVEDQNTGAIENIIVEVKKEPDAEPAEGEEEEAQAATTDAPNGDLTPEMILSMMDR
Assay: condition: GFP-CTCFL at 1-, 2-, 5- and 10-fold compared to GFP-CTCF; native gel or EMSA; band shift with nuclear extracts on radiolabelled Prss50 and Stra8 probes, probe-limiting concentrations; 10 ug CTCF nuclear extract, GFP-CTCFL extract added in increasing amounts (1-, 2-, 5- and 10-fold); 25 °C, 20 mM HEPES pH 7.5, 50 mM KCl; 4% polyacrylamide gel

binding: no binding
B1: GFP-CTCFL (mouse CTCF-like protein, from pEGFP-mCTCFL) (protein, UniProt A2APF3 1-636)
chain: MAAAEVPVPSGYFTQIKEQKLKPGDLEEEKEEDGVQRVEAQEGVVKEVEAENSCLLLEARAPVESDRRILTLQTVHLESQDVHLQGLGWLSVPHSEELSGTVPEAEGILQLPSVLWLDPEPQLSLQHCVTVSIPEELYPPEELQRIHFHLLRENVLMAEENPELTPDLDESTALKKPEEDEKDQLPPQGETDKREERLLLLEMKPKEGKDDEIVLTISHLSLEEQQDPPAANQTSVPGAKAAKPKRRRQTKGKPQSFQCDTCPFTSSKLSTFNRHIKIHSNERPHLCHLCLKAFRTVTLLRNHVNTHTGTRPHKCRDCDMAFVTSGELVRHRRYKHTYEKPFKCSLCKYASVEASKMKRHIRSHTGERPFQCCQCAYASRDSYKLKRHMRTHSGEKPYECPTCHVRFTQSGTMKIHIAQKHGENVPKYECPHCATIIARKSDLRVHLRNLHSQSPEEMKCRYCPAGFHERYALIQHQRTHKNEKKFKCKQCDYACKQERCLKAHMRMHTGEKPFSCLACNKHFRQKQLLTVHLRKYHDPNFVPNLHLCLKCDKRFSRWSNLQRHRKKCDPEHETLAPNKDRRPVTRTQASEGEAGHKEGEPQCPGEQALGHQGEAAGSQSPDHGLTCEIIFNMMDK

Reference: publication PMC3418201
